Results from publication PMC7562719, “Discovery of a CNS penetrant small molecule SMN2 splicing modulator with improved tolerability for spinal muscular atrophy” (Scientific Reports, 2020).
Marks after values point to notes of the source that are not given here.

Tested on: TK6 cells
Conditions: positive control 0.01 µg/mL (0.03 µM), 24 h -S9 mix
Procedure: These articles have been recommended for use in the OECD test guideline (Test No. 487)[49]. For metabolic activation, pre-cultured TK6 cells with the culture medium were supplemented with Sprague–Dawley rat liver mix (S9 mix, IEDA TRADING CORPORATION, Japan) at 3.33 vol%. Then, compound was mixed with the cell suspension and treated under the following treatment conditions: • Short-term treatment for 3 h without S9 mix, followed by a 21-h culture (−S9 mix assay), • Short-term treatment for 3 h with S9 mix, followed by a 21-h culture (+S9 mix assay), or • Continuous treatment for 24 h without S9 mix (24-h assay). For treatment conditions 1 and 2, the cells in each well were centrifuged after the 3-h treatment, the supernatants were discarded, and the cells were washed twice with culture medium. The cells were further cultured with fresh culture medium for 21 h. The compound-treated cells were examined by the unaided eye for precipitation of compound at the start and end of treatment. After treatment, the rest of each cell suspension was centrifuged and then the cells were suspended in a 0.075 mol/L KCl solution at room temperature for 10 min. Then, 25 vol% acetic acid containing methanol was added and the centrifuged cells were fixed. The fixed cells were resuspended in a small amount of 3 vol% acetic acid containing methanol, which was changed two times by centrifugation. Finally, a drop of the cell suspension was transferred onto a slide and dried at room temperature. The slides were stained at room temperature in a 3 vol% Giemsa solution (Merck KGaA) diluted with Sörensen phosphate buffer (1/15 mol/L, pH 6.8, Muto Pure Chemicals Co. Ltd.). Four slides per dose (2 slides per well) were prepared. Each slide was coded randomly. […] To perform scoring for compound and negative control groups, the number of cells in the suspensions was counted using a Coulter Counter (Z2; Beckman Coulter, Inc.). The positive control groups were not determined. […] The cell number per 1 mL at each culture was calculated by the following formula. […]
The population doubling (PD) and relative population doubling (RPD) at each concentration was calculated by the following formula. […]
RPD%=PD of the compound-treated group/PD of the negative control group×100 For the treated groups, the 3 consecutive concentrations were selected as follows. […] For all concentrations, 4000 mononuclear cells with cytoplasm were analyzed and the number of cells with micronucleus (micronuclei) was counted using a microscope (× 600). […] Each investigator scored 1000 cells for the frequency of micronucleated cells. […] A cell having one or more micronuclei was recorded as a micronucleated cell.

`CN[C@H]1CCc2cc(OC)c(OC)c(OC)c2-c2ccc(OC)c(=O)cc21` [COL, colcemid, reference compound] was tested, and the “Micronucleated cells Well 1” value was 45, the “Micronucleated cells Well 2” value was 51 and the “Micronucleated cells Total” value (counted in 4000 cells) was 96. For the same compound, the “Micronucleated cells (%)” value (p < 0.01) was “(2.4) ** %”.
